PubChem BioAssay AID1347075 (National Center for Advancing Translational Sciences (NCATS), 2019)
Among all 400,000 compounds or so, about 5,500 (1.4%) were called active. Inconclusive results, whose numbers are uncertain, are shown with a selection of clear calls. Calls follow the shape of the dose curve; as a rule, active = well fitted cell-killing curve with a large enough effect; inconclusive = small, poorly fitted or top-dose-only effect, or effect the other way; inactive = flat fitted curve, though single readings scatter. Potencies beside an inconclusive call are fits to weak or partial responses and may not hold up.
% is scaled to controls: 0 for no effect and ±100 for the full control effect; potency is read from the fitted curve at half-maximal effect.

Test: qHTS assay for MDR1-selective chemotherapeutics: Primary screen using the parental adenocarcinoma cell KB-3-1; also: nearly all actives have a fitted effect of over 60% in size
Settings: KB-3-1 viability, CellTiter-Glo ATP luminescence, 72 h; activity change, negative = cytotoxic: at 46.1 µM (top of the series)
In short: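 Here the drug-naive KB-3-1 line serves as comparator for MDR sub-line selectivity; cells received compound titrations, 72 h at 37 °C, then CellTiter-Glo readout.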
In the case of `COc1ccccc1N1CCN(C(=O)c2ccc(N3CCCCS3(=O)=O)cc2)CC1`, the Potency is reported as “inactive”.
In the case of `O=C(NNC(=O)C1CCN(S(=O)(=O)c2ccc(Cl)cc2)CC1)c1ccccc1O`, the Potency is reported as inconclusive: 23.1 µM [cytotoxic, single point].
For `CN1C(=O)c2ccccc2Sc2ccc(NC(=O)N3CCOCC3)cc21`, the Potency was “inactive”.
With `Cc1cccc2cc(C#N)c(SCC(=O)NNC(=O)Cc3ccccc3)nc12` the Potency was inconclusive: 16.4 µM [cytotoxic, single point].
For `COc1ccccc1NC(=O)CSc1nncn1N`, the Potency was inconclusive: 29.1 µM [cytotoxic, single point].
With `CCCn1c(N2CCC(Cc3ccccc3)CC2)nc2c1c(=O)[nH]c(=O)n2C` the Potency was inconclusive: 25.9 µM [cytotoxic, single point].
In the case of `CCN(CC)C(=O)N1CCN(S(=O)(=O)c2ccc(C)c(C)c2)CC1`, the Potency is reported as inconclusive: 25.9 µM [cytotoxic, single point].
In the case of `CCOC(=O)c1c(S(=O)(=O)N2CCCC(C(=O)Nc3ncccc3C)C2)c(C)n(C)c1C` (stereo unspecified), the Potency is reported as inconclusive: 18.4 µM [rising, single point].
For `CCC(=O)N1CCc2cc(S(=O)(=O)CCC(=O)NCc3ccco3)ccc21`, the activity change, negative = cytotoxic was inconclusive: 0%.
With `COC(=O)c1ccc2nc(-c3cccc(Br)c3)c(Cc3cccc(F)c3)n2c1` the Potency was inconclusive: 29.1 µM [cytotoxic, single point].
In the case of `Cc1cccc(-n2cnc3cc([N+](=O)[O-])ccc32)c1`, the Potency is reported as inconclusive: 18.4 µM [rising, single point].
For `COc1ccccc1N=C1SC(C(=O)Nc2cccc(Cl)c2Cl)C(N)=C1C(N)=O` (stereo unspecified), the Potency was inconclusive: 20.6 µM [cytotoxic, single point].
With `COc1ccc2c(c1)c1c(c(=O)n(-c3ccc(OC)c(OC)c3)c(=O)n1Cc1ccc(C)cc1)n2C` the Potency was “inactive”.
In the case of `COc1ccccc1CNC(=O)Nc1nc(C(N)Cc2ccc(Cl)cc2)cs1` (stereo unspecified), the Potency is reported as inconclusive: 29.1 µM [cytotoxic, single point].
With `CC(=O)NNC(=O)CCC(=O)Nc1ccccc1` the Potency was “inactive”.
With `CCc1noc(C)c1C(=O)Nc1nc(-c2cc(C)ccc2C)c(C)s1` the Potency was inconclusive: 29.1 µM [cytotoxic, single point].
In the case of `O=S(=O)(Nc1nc2ccccc2nc1Cl)c1ccc2c(c1)OCCO2`, the Potency is reported as inconclusive: 29.1 µM [cytotoxic, single point].
In the case of `CCN1CCN(CCCNC(=O)c2ccc3c(c2)N(Cc2ccc(C)cc2)CCS3)CC1`, the Potency is reported as inconclusive: 29.1 µM [cytotoxic, single point].
In the case of `COc1ccc(OC)c(S(=O)(=O)N2CCN(c3ccccc3OC)CC2)c1`, the Potency is reported as “inactive”.
In the case of `Cc1ccc(C)c(S(=O)(=O)/N=C2\C=C(NS(=O)(=O)c3ccccc3)C(=O)c3ccccc32)c1`, the Potency is reported as inconclusive: 29.1 µM [cytotoxic, single point].
In the case of `COC(=O)[C@@H]1Cc2c([nH]c3ccccc23)C(C)(C)N1C(=O)CCl`, the Potency is reported as inconclusive: 29.1 µM [cytotoxic, single point].
With `CC(C)c1ccc(NC(=O)CCc2ccccc2)cc1` the Potency was inconclusive: 29.1 µM [cytotoxic, single point].
For `CCOC(=O)c1c(/N=C/c2ccc(C)cc2O)sc2c1CCN(C)C2`, the activity change, negative = cytotoxic was inconclusive: 0.69%.
For `O=C(NCCc1ccccc1)N1CCCC(CNS(=O)(=O)Cc2ccccc2)C1` (stereo unspecified), the Potency was “inactive”.
For `Cc1ccc(C)c(NC(=O)Cn2nnc(C(=O)NCc3ccco3)c2N)c1`, the Potency was inconclusive: 2.31 µM [cytotoxic, partial curve, poor fit].
With `Oc1nc(Nc2cccc(Cl)c2)sc1/C=C1\C=Nc2ccccc21` the Potency was inconclusive: 20.6 µM [cytotoxic, single point].
With `CC(C)C(C(=O)NCc1ccccc1)N(C)Cc1ccc(Cl)c(Cl)c1` (stereo unspecified) the Potency was inconclusive: 29.1 µM [cytotoxic, single point].
With `CN(C)S(=O)(=O)c1ccc(NC(=O)c2cc3ccccc3o2)cc1` the Potency was “inactive”.
For `CCC(=O)N1CCc2nc(-c3ccccc3)sc2C1`, the Potency was “inactive”.
With `O=C(C#Cc1ccccc1)c1ccco1` the Potency was inconclusive: 29.1 µM [cytotoxic, single point].
With `CCN(CC)c1ccc2cc(C(N)=O)c(=N)oc2c1` the Potency was “inactive”.
With `Cc1nn(C)c2c1c(C(F)(F)F)cc(=O)n2C(C)C(=O)N1CCN(c2ccccc2)CC1` (stereo unspecified) the Potency was inconclusive: 20.6 µM [cytotoxic, partial curve, poor fit].
With `O=C(NCCCN1CCOCC1)c1c(F)c(F)c(F)c(F)c1F` the Potency was “inactive”.
With `CCC(C)C(=O)Nc1nc(C)c(-c2csc(Nc3cc(OC)ccc3OC)n2)s1` (stereo unspecified) the Potency was inconclusive: 18.4 µM [cytotoxic, single point].
For `Cn1cc(S(=O)(=O)N2CCCCCC2)cc1C(=O)N1CCN(c2ccc(Cl)cc2)CC1`, the Potency was “inactive”.
With `Cc1cc(S(=O)(=O)c2cc3ccc(O)c(C)c3oc2=O)ccc1F` the Potency was inconclusive: 29.1 µM [cytotoxic, single point].
For `Cc1ccc(Oc2ncnc(N)c2[N+](=O)[O-])cc1`, the Potency was inconclusive: 18.4 µM [rising, partial curve].
In the case of `Cc1ccc(/C=C/S(=O)(=O)NCC(=O)OCC(=O)Nc2ccc(C(=O)N(C)C)cc2)cc1`, the Potency is reported as “inactive”.
In the case of `CCCCNC(=O)CNC(=O)c1nn(-c2ccc(OC)cc2OC)c(=O)c2ccccc12`, the Potency is reported as “inactive”.
For `CC1=NN(C)C(=O)C1Cc1c(F)cccc1Cl` (stereo unspecified), the Potency was “inactive”.
For `CCCc1cc(=O)n2[nH]c(C)c(-c3ccc(Cl)cc3)c2n1`, the Potency was inconclusive: 20.6 µM [cytotoxic, single point].
In the case of `CCOC(=O)c1c(C)oc2ncnc(N3CCN(c4cccc(Cl)c4)CC3)c12`, the Potency is reported as inconclusive: 29.1 µM [cytotoxic, single point].
For `Cc1ccc(CN2CCN(C(=O)C3CCC3)CC2)cc1`, the Potency was inconclusive: 2.82 µM [cytotoxic, partial curve, poor fit].
For `CC(NC(=O)c1ccc2ccccc2n1)c1ccc(Br)cc1` (stereo unspecified), the activity change, negative = cytotoxic was inconclusive: 24.5%.
In the case of `COc1cccc(Oc2ccc(OC)cc2C(=O)O)c1`, the activity change, negative = cytotoxic is reported as inconclusive: -20.2%.
With `COc1ccccc1CNC(=O)Nc1nnc(-c2ccncc2)s1` the activity change, negative = cytotoxic was inconclusive: 50.2%.
